Measured values published in the supplement of paper PMC11732987, “Enantioselective OTUD7B fragment discovery through chemoproteomics screening and high-throughput optimisation” (Communications Chemistry, 2025).
The other results are listed elsewhere or left out. The data scatter; read single values as rough.

Amino acid sequences for entries named in this document (tags omitted). A change or cut given only in a name is not applied to a line headed by its entry.
UniProt O14929: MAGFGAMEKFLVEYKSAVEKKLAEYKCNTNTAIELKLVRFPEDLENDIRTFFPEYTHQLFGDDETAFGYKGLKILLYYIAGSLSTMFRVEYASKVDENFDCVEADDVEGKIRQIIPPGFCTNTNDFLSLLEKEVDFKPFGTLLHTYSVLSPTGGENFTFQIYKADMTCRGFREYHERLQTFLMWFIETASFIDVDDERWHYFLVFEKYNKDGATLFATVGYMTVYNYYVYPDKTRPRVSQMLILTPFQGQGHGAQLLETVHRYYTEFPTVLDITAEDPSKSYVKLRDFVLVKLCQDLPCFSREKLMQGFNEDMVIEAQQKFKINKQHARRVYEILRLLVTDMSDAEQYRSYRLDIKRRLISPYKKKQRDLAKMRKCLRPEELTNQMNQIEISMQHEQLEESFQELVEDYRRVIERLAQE
UniProt Q92769: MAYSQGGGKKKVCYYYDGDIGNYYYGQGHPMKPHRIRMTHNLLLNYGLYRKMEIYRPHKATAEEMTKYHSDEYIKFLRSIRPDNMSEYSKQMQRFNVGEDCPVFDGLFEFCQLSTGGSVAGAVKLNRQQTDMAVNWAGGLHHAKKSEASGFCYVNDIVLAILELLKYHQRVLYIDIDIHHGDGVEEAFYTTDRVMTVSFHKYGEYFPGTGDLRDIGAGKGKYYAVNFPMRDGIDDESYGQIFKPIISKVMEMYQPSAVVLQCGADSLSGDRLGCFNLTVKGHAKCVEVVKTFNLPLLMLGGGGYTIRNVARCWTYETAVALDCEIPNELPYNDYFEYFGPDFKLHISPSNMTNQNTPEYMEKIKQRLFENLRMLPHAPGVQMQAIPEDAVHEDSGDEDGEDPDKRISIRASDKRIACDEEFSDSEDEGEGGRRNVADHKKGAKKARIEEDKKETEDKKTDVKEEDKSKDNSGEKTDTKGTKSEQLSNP
UniProt Q9Y5Q8: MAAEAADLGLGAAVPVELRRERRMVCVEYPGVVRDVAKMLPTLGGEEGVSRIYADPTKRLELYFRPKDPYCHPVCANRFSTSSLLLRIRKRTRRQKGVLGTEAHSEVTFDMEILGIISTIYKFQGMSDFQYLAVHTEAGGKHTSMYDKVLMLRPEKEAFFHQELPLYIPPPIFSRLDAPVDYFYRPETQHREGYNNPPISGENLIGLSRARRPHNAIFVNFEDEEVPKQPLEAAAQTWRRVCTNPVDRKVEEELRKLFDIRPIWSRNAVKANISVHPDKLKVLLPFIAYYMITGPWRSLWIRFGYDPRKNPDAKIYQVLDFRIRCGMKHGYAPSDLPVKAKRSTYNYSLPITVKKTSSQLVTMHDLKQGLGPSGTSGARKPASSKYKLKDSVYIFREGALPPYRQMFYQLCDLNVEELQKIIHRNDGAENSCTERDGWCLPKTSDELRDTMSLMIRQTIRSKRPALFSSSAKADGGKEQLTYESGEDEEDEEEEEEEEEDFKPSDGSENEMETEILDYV
UniProt Q8WUA4: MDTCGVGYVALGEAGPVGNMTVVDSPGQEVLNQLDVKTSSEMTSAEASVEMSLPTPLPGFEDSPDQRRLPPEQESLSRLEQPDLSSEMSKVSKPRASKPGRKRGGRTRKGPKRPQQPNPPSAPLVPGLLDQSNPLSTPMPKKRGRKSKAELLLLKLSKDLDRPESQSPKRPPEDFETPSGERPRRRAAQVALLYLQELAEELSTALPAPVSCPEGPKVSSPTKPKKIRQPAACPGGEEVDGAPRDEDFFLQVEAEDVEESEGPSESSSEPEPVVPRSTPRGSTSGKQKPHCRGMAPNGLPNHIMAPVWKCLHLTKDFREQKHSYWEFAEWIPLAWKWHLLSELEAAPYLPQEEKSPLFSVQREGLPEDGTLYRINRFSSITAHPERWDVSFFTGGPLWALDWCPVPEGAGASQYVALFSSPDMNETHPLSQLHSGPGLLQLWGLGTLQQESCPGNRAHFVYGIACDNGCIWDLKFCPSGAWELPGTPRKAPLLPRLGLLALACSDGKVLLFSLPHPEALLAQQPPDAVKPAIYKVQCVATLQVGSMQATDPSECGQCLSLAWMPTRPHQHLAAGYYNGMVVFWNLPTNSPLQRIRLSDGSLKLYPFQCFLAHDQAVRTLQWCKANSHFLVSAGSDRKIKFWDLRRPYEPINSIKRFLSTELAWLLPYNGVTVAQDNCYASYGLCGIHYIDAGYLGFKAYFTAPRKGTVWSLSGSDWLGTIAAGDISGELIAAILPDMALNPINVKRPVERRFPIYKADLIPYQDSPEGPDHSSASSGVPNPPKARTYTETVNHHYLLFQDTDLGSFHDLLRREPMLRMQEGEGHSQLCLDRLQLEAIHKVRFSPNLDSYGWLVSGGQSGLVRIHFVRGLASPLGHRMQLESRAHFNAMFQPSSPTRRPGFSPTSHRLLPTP
UniProt Q9UII4: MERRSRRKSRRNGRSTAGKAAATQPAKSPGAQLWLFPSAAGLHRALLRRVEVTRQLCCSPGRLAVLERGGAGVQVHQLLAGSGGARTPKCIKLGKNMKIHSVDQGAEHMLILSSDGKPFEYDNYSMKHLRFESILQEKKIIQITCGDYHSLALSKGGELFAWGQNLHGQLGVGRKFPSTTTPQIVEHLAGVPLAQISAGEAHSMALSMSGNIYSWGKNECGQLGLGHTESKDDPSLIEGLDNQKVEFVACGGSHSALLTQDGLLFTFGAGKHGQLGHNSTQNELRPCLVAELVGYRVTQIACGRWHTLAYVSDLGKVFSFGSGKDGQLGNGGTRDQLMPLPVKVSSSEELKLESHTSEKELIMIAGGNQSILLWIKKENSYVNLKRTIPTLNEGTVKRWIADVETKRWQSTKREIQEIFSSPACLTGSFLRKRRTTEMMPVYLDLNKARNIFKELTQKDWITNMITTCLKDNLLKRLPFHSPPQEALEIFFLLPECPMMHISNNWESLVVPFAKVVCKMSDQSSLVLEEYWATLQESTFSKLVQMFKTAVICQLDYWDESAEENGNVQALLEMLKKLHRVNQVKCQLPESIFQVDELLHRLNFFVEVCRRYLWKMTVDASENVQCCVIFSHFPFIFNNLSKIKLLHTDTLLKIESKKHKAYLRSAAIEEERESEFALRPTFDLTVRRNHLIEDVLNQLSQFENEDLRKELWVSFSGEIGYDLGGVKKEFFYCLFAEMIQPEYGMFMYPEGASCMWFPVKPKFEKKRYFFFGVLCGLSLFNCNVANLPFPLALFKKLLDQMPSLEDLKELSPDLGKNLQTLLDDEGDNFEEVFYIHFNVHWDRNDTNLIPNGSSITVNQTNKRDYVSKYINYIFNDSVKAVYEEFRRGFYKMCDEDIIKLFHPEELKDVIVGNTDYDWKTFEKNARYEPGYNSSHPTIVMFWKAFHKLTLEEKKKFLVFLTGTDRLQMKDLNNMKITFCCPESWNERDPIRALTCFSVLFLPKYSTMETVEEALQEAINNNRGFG
UniProt Q9UBI9: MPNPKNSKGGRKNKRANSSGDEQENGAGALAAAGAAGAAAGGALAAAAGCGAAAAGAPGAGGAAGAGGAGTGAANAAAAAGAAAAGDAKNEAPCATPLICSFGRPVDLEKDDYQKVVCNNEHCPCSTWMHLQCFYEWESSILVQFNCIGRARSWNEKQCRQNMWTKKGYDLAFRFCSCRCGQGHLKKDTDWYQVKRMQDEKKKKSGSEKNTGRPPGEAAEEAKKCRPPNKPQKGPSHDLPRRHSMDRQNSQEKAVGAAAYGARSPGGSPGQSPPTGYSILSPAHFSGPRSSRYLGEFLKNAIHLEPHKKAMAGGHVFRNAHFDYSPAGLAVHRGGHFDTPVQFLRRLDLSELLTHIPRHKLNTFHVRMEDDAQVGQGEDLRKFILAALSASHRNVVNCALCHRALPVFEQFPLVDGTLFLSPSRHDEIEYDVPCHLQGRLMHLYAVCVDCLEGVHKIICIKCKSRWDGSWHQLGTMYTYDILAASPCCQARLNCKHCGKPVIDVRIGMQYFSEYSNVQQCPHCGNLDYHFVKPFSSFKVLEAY
UniProt P19367: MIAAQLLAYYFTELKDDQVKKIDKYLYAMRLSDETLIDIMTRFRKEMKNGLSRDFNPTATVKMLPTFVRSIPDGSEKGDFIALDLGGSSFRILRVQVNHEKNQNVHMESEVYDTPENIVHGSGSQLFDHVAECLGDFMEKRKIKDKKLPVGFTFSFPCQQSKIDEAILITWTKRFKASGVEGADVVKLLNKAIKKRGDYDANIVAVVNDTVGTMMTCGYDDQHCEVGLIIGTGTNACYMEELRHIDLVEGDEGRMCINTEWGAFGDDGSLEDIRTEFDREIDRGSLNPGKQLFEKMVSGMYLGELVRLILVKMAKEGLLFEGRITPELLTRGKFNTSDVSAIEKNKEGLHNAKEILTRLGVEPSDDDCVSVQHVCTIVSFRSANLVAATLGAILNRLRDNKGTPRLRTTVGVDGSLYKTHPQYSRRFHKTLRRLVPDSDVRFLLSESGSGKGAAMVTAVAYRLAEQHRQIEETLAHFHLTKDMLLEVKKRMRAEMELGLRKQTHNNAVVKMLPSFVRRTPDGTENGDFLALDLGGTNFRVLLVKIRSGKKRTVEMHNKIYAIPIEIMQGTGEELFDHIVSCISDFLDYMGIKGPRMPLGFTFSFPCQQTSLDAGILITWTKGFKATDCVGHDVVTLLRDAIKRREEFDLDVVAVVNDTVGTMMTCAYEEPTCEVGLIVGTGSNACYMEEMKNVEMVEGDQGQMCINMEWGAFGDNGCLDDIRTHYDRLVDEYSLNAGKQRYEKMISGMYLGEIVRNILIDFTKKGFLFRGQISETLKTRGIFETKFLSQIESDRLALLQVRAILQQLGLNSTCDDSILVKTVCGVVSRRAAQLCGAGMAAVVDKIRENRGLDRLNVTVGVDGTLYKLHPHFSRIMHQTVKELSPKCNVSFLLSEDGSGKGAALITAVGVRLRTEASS
UniProt Q1KMD3: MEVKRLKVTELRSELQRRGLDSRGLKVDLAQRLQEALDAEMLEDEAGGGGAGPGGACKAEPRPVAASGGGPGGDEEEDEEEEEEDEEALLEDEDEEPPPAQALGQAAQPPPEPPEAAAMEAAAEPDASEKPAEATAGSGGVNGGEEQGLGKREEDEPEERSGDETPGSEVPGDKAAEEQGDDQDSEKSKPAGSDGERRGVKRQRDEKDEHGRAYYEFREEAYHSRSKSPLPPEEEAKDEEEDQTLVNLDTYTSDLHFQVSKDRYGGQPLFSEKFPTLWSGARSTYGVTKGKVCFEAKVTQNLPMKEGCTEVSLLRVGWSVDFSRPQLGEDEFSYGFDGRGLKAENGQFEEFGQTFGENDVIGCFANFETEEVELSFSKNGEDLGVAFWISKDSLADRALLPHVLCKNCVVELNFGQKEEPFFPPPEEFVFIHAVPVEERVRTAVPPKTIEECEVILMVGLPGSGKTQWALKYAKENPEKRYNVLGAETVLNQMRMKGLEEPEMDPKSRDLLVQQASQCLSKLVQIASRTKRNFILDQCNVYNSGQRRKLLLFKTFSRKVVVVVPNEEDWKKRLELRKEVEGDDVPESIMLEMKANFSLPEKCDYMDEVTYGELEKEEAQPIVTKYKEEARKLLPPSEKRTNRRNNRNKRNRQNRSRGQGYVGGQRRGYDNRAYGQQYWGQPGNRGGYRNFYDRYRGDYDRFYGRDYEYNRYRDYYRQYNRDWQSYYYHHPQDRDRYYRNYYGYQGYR
UniProt P04035: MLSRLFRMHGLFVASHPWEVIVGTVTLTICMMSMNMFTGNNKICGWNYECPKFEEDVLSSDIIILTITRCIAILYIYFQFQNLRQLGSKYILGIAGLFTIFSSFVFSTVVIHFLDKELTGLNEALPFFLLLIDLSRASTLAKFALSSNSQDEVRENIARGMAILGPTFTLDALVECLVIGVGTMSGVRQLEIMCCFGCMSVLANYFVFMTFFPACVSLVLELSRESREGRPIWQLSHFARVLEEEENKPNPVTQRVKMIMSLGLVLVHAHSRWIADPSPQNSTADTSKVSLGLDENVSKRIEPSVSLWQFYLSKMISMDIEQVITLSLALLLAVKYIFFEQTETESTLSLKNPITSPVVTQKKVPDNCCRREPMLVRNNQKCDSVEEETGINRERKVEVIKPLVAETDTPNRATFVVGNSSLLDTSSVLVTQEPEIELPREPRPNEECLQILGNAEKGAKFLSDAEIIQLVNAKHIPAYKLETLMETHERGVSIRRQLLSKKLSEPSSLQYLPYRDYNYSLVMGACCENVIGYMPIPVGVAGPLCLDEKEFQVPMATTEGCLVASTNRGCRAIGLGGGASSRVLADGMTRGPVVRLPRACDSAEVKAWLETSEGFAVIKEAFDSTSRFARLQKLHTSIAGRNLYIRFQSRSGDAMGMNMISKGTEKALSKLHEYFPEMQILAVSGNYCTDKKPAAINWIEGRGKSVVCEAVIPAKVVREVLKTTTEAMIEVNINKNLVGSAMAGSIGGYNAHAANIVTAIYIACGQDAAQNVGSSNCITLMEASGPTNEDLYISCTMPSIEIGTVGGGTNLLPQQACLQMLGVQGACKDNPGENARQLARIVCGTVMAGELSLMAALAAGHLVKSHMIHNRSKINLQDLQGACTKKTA

Key:
[1] = compound: ClCC(=O)N[C@@H]1CCCc2ccccc12; assay: log2 mean competition ratio of IA-DTB cysteine labelling (DMSO/compound) (log2 ratio); higher = stronger cysteine engagement by compound; details: treatment time: 4 h, cell line lysate: HEK293T
Protocol: (§1)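 IA-DTB competitive cysteine chemoproteomics in HEK293T RIPA lysate. Lysates were treated with compound 29 or 30 at 50 or 200 µM for 4 h, then IA-DTB (500 µM, 1 h), trypsin-digested, NeutrAvidin-enriched and analysed by diaPASEF. Competition ratio = intensity DMSO / intensity compound (n=4 treated, n=64 DMSO); binding: mean log2 CR ≥ 1 and p ≤ 0.05 plus QC filters. Target is the cysteine site.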

[2] = compound: ClCC(=O)N[C@H]1CCCc2ccccc12; assay: as above; details: treatment time: 4 h, cell line lysate: HEK293T
Protocol: as §1

Target	log2 mean competition ratio ([1]; 50 µM)	log2 mean competition ratio ([1]; 200 µM)	log2 mean competition ratio ([2]; 50 µM)	log2 mean competition ratio ([2]; 200 µM)
HAT1 C27 (UniProt O14929)	-0.0581	-0.107	0.0502	0.164
HDAC2 C417 (UniProt Q92769)	0.299	-0.547	-0.0235	-0.198
HECTD4 C1912	0.0297	0.0703	-0.284	0.0689
GTF3C5 C26 (UniProt Q9Y5Q8)	-0.107	-0.195	-0.275	-0.199
HELZ C863 (UniProt P42694)	-0.0148	-0.0749	-0.0823	-0.0795
GUCY1B1 C174	-0.402	-0.00324	-0.726	-0.0585
HELLS C205 (UniProt Q9NRZ9)	0.0902	0.0634	0.0365	0.0359
GTF3C2 C503 (UniProt Q8WUA4)	0.245	0.0164	-0.328	-0.0068
HELZ C256 (UniProt P42694)	-0.0367	-0.222	-0.102	-0.227
HDAC7 C904 (UniProt Q8WUI4)	0.00659	-0.121	-0.215	0.202
HIRIP3 C86 (UniProt Q9BW71)	-0.00312	0.335	-0.204	0.209
HERC5 C302 (UniProt Q9UII4)	-0.0374	-0.0431	-0.152	-0.0127
GSTM3 C178 (UniProt P21266)	-0.00295	-0.142	-0.279	0.168
HECA C434 (UniProt Q9UBI9)	-0.183	0.0661	-0.741	-0.165
HK1 C628 (UniProt P19367)	0.4	0.399	-0.277	0.218
HNRNPUL2 C538 (UniProt Q1KMD3)	0.0306	0.189	0.315	0.205
GTPBP8 C114 (UniProt Q8N3Z3)	-0.338	0.0329	-0.649	0.0461
HMGCR C561 (UniProt P04035)	0.101	-0.206	0.119	-0.0153
GTSE1 C478 (UniProt Q9NYZ3)	0.33	0.0484	0.556	0.00787

Single values from the entries so far:
log2 mean competition ratio ([2]; 200 µM) with HDAC7 C904 (UniProt Q8WUI4) reads 0.202
log2 mean competition ratio ([1]; 50 µM) with HIRIP3 C86 (UniProt Q9BW71) reads -0.00312
